PubChem BioAssay AID624291 (National Center for Advancing Translational Sciences (NCATS), 2012)
In all, about 350,000 compounds went through this assay and about 220 (0.063%) were called active. Inconclusive means that the source gave no clear call. Such entries were picked first, then a sample of the others. Calls come from the whole dose curve; as a rule, active = well fitted activation curve with a large enough effect; inconclusive = small, poorly fitted or top-dose-only effect; inactive = no such curve, though single readings can be large or run the other way. Where the call is inconclusive, the potency comes from a doubtful curve fit.

Assay: qHTS for Activators of Integrin-Mediated Alleviation for Muscular Dystrophy; note: nearly all actives have a fitted effect of over 60% in size
Conditions: alpha7betagal myoblasts, beta-gal FDG fluorescence, 48 h; series mostly up to 38.3 µM
Outline: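 Alpha7betagal+/- myoblasts (passage 13) were plated 16-24 hr, then exposed to compounds (1:260 dilution of DMSO stock) for 48 hours at 37C. After MPER lysis, β-galactosidase reporter activity was read as FDG fluorescence (ex 480/em 540) after 30 minutes.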
Potency is the fitted concentration of half-maximal effect.

Potency, active:
CCC(CC)C(=O)Nc1c(C(=O)N2CCN(c3ccccc3)CC2)oc2ccccc12 12.6 µM

Potency, inconclusive:
O=C(O)c1c(NC(=O)c2cccc3ccccc23)sc2c1CCC2 14.1 µM [activator, single point], C=CCN1C=C2C(=O)C(C)(OC(=O)c3ccc(OC)cc3)C(=O)C(c3ccco3)=C2C=C1CCCC (stereo not given) 5.01 µM [activator, single point], O=C(NCc1cccnc1)C1c2ccccc2C(=O)N1C1CCCCCC1 (stereo not given) 5.62 µM [activator, single point], COCCNc1cc(C)nc2cc(-c3ccc(C)cc3)nn12 1.12 µM [activator, partial curve, poor fit], COc1ccc(CCNC(=O)Cn2c([N+](=O)[O-])cnc2C)cc1OC 14.1 µM [activator, partial curve, poor fit], CCCCNC(=O)CN1C(=O)COc2ccc(S(=O)(=O)N3CCCCCC3)cc21 28.2 µM [activator, single point], CCC(C)C(NC(=O)C1CCC(C)CC1)C(=O)NCCc1ccc(S(N)(=O)=O)cc1 (stereo not given) 5.01 µM [activator, single point], NC(=O)c1c(NC(=O)c2ccc(F)cc2)sc2c1CCC2 3.98 µM [activator, full curve, poor fit], O=S(=O)(Nc1cccnc1)c1cccnc1 10 µM [activator, partial curve, poor fit], Cc1ccc(-n2nc3c(c2NC(=O)c2ccc4c(c2)OCO4)CS(=O)(=O)C3)cc1 2.24 µM [activator, partial curve, poor fit], Cc1ccc(NS(=O)(=O)c2cccs2)nc1 5.01 µM [activator, single point], CCCC(=O)Nc1cc(S(=O)(=O)N2CCCCC2)ccc1N1CCOCC1 5.01 µM [activator, single point], COc1ccc2[nH]c(C(=O)NCCCN3CCCC3=O)c(C)c2c1 14.1 µM [activator, partial curve, poor fit], Cn1c(N)c(C(=O)COC(=O)CCCN2C(=O)c3ccccc3C2=O)c(=O)n(C)c1=O 5.01 µM [activator, single point], COC(=O)c1cccc(NC(=S)Nc2cc(Cl)ccc2OC)c1 3.16 µM [activator, single point], Cn1c(NC(=O)c2ccc(F)cc2)nc2ccccc21 2.82 µM [activator, single point], NC(=O)c1cc(C(=O)c2cccc(Cl)c2Cl)c[nH]1 5.01 µM [activator, single point], CCOc1ccc(C(=O)NCC2CCCO2)cc1 (stereo not given) 1.26 µM [activator, partial curve, poor fit], Cc1ccc(NC(=O)CCc2ccc(C)o2)c(C)c1 2.51 µM [activator, single point], CCOC(=O)c1sc(C)c2c(=O)n(CC)nnc12 5.01 µM [activator, single point], CS(=O)(=O)N(CC(=O)Nc1ccccc1C(=O)NCc1ccco1)c1ccccc1F 22.4 µM [activator, single point], O=C(Nc1ccccc1)c1cn(CCBr)cn1 3.16 µM [activator, full curve, poor fit], CCOC(=O)C1=C(N)N2C(=O)C(C)SC2=C(C(=O)OCC)C1c1cc(OC)c(OC)c(OC)c1 (stereo not given) 2.82 µM [activator, single point], COc1ccc(C(=O)NCC2(c3ccc(OC)c(OC)c3)CCCC2)c(OC)c1 5.01 µM [activator, single point], CCOc1ncccc1C(=O)Nc1nnc(C)s1 28.2 µM [activator, single point], CC(=O)Nc1ccc(S(=O)(=O)NCC(=O)OCC(=O)c2cc(C)n(-c3ccc4c(c3)OCO4)c2C)cc1 12.6 µM [activator, single point], O=C(CSc1nncs1)NNC(=O)c1ccccc1Br 5.01 µM [activator, single point], O=C(CSc1n[nH]c(-c2ccccc2)n1)N1CCCC1 5.01 µM [activator, partial curve], Cc1ccc(NC(=O)COC(=O)CNC(=O)c2cccs2)cc1S(=O)(=O)N1CCOCC1 4.47 µM [activator, single point], O=C(O)c1ccc(N=C2c3ccccc3-c3ccccc32)cc1 7.08 µM [activator, partial curve, poor fit], COc1ccc(CCNC(=O)Cn2cccc2C(=O)c2ccccc2C)cc1OC 1.26 µM [activator, single point], O=c1[nH]ncn1-c1ccc(Br)cc1 28.2 µM [activator, single point], CC(c1ccccc1C(=O)O)c1cc(F)cc2ccccc12 (stereo not given) 3.16 µM [activator, partial curve, poor fit], CC(C)COc1nc2c(c(=O)n(C)c(=O)n2C)n1C 5.01 µM [activator, single point], COc1ccc(N/C=C2\C(=O)CCc3c2oc2cc(Cl)c(O)c(Cl)c32)cc1 1.41 µM [activator, partial curve, poor fit], COC(=O)C1CCN(C(=O)[C@H](C)NC(=O)C2CC(=O)N(c3ccc(F)cc3)C2)CC1 (stereo not given in full) 5.01 µM [activator, single point], COc1ccc(N2CCN(c3ccc(N4C(=O)CC(C)C4=O)cc3[N+](=O)[O-])CC2)cc1 (stereo not given) 3.98 µM [activator, full curve], CCOc1ccccc1Nc1ncnc2ccc(Br)cc12 5.62 µM [activator, partial curve, poor fit], CCCN(CC(=O)Nc1ccc(F)c(F)c1F)CC(=O)Nc1c(Cl)cccc1Cl 5.01 µM [activator, single point], CC1CCCN(C(=O)C2CCN(C(=O)Nc3ccccc3)CC2)C1 (stereo not given) 5.01 µM [activator, single point], O=C1CC(N2CCN(c3ccccc3)CC2)C(=O)N1Cc1ccc(Cl)cc1 (stereo not given) 11.2 µM [activator, single point], O=C(CC1CCC1)Nc1cccc2c([N+](=O)[O-])cccc12 25.1 µM [activator, single point], CCOc1ccc(NC(=O)N2CCC(n3nnc4ccccc43)CC2)cc1 2.82 µM [activator, partial curve, poor fit], O=C(CCCSCCCC(=O)NN=Cc1ccccc1)NN=Cc1ccccc1 10 µM [activator, partial curve, poor fit], O=C(Cc1ccc(Br)cc1)N1CCc2ccccc2C1 3.16 µM [activator, partial curve, poor fit], O=C(O)CCc1nc2cc(C(F)(F)F)ccc2n(Cc2ccccc2)c1=O 1.58 µM [activator, partial curve, poor fit], COc1ccc(Nc2c3c(nc4ccccc24)CCC3)c(OC)c1 28.2 µM [activator, single point]

Potency, inactive:
CC(C)(C)c1ccc(C(=O)N2CCCCCC2=O)cc1, CC(Nc1nc(-c2ccccc2F)nc2ccccc12)c1ccccc1 (stereo not given), Cn1c(SCC(=O)NCC2CCCO2)nc2c([nH]c3ccccc32)c1=O (stereo not given), COc1ccc(-n2c(=S)[nH]c3cc(C(=O)NCc4cccnc4)ccc3c2=O)c(OC)c1, O=[N+]([O-])c1cccnc1Oc1ccc(F)cc1F, Oc1ccc(/C=N/NC(=S)NCc2ccco2)cc1, CCC1(C)CC(C(N)=S)CCO1 (stereo not given), CCCCn1c(-c2ccco2)nc2ccccc2c1=O, COc1ccccc1C(=O)NC(=S)Nc1ccc(N2CCOCC2)cc1, Cc1cc(=O)oc2cc3c(cc12)OCCN3, COc1ccc(CC(=O)N/N=C(\C)c2cccnc2)cc1, CC(=O)Nc1ccc(OCCOc2ccc(/C=C3\C(=N)N4N=C(C)SC4=NC3=O)cc2)cc1, N=c1c(S(=O)(=O)c2ccc(F)cc2)cc2c(=O)n3ccccc3nc2n1CC1CCCO1 (stereo not given), Cc1cc(C)n(-c2ccc(C(=O)OCc3nnc(-c4ccccc4)o3)cc2)n1, Cc1ccc2c(CN(C)Cc3cccc(F)c3)cc(=O)oc2c1C, O=C(Nc1ccc2oc(=O)ccc2c1)c1cc2ccccc2o1, COc1cc2[nH]c(=S)nc(NCc3ccccc3)c2cc1OC, CC(C)(C)n1ncc2c(=O)n(CC(=O)Nc3ccc(Cl)cc3)cnc21, CC(/C=N/NC(=O)c1cc(-c2ccccc2)nc2ccccc12)=C\c1ccco1, O=C(CSc1nc2c(sc3ccccc32)c(=O)n1CCCN1CCCC1)NCC1CCCO1 (stereo not given), CCc1nn(CC(=O)NCCCN2CCN(C)CC2)c(=O)c2cc3sccc3n12, COc1ccc(C2CC(c3cccs3)=NN2C(=O)CCl)cc1OC (stereo not given)
